PubChem BioAssay AID1224826 – NIAID | 2016
Screen: 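Regulators of Tlr4 signalling leading to Tnf-alpha expression in macrophages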 (primary screen). Cell system: RAW264.7 G9 macrophages from mouse bearing reporters for p65 (GFP) and the Tnf promoter (mCherry). Reagents: siRNA pool against mouse genes, 100 nM. Time to read-out: 16 h of LPS stimulation, after 2 days of siRNA transfection. Conditions: bacterial lipopolysaccharide (Salmonella minnesota R595), 10 ng/ml. Detection: 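Nuclear mCherry signal of the Tnf promoter reporter measured by imaging after background removal, scaled to each plate median and turned into robust z-scores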. Scale: Tnf reporter robust z-score: higher = stronger Tnf promoter reporter signal after LPS. Call rule: 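a well counts as active at a score of -1.3 or below (Tlr4 knock-down control median) or above 3 (raised signal); controls and wells holding fewer than 50 cells are excluded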. Meaning of the calls: active = Tnf reporter clearly lowered or raised; inactive = no clear change in Tnf reporter.
This is an unselected part of about 17,000 reagents. About 1,110 of them (6.6%) were called active. 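Active means lowered or raised reporter signal; replicate intensities are raw and not normalised per plate.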 Some reagents were tested in more than one well and are listed for each. Further read-outs or replicates are left out here.

With knock-down of Rab43 [SID315473914], the screen gave fewer than 50 cells in well fewer than 50 cells per well; well left out of calls; inactive. Silencing of Tmcc2 [SID315473658] resulted in: Tnf reporter robust z-score 3.48; fewer than 50 cells in well enough cells in well; active. After knock-down of Grk4 [SID315467004] the results were Tnf reporter robust z-score 1.09; fewer than 50 cells in well enough cells in well; inactive. For Grk4 [SID315467004] the deposit lists Tnf reporter robust z-score 0.79; fewer than 50 cells in well enough cells in well; inactive. Silencing of Or1l4 [SID315480310] resulted in: Tnf reporter robust z-score -0.25; fewer than 50 cells in well enough cells in well; inactive. Knock-down of U55872 (retired record) [SID315471786] came out at: Tnf reporter robust z-score -1.88; fewer than 50 cells in well enough cells in well; active.

With knock-down of Strc [SID315477112], the screen gave Tnf reporter robust z-score -0.25; fewer than 50 cells in well enough cells in well; inactive. For Zmat3 [SID315470032] the deposit lists Tnf reporter robust z-score -0.74; fewer than 50 cells in well enough cells in well; inactive. Depletion of Ppp1cb [SID315468661] resulted in: Tnf reporter robust z-score 0.43; fewer than 50 cells in well enough cells in well; inactive. After knock-down of Actr8 [SID315471420], the record shows Tnf reporter robust z-score 0.2; fewer than 50 cells in well enough cells in well; inactive. For V1rd18 [SID315481921], the values are fewer than 50 cells in well fewer than 50 cells per well; well left out of calls; inactive. With knock-down of C230012O17Rik [SID315481116], the record shows Tnf reporter robust z-score 0.59; fewer than 50 cells in well enough cells in well; inactive.

Records listed so far with an active call:
Tmcc2 [SID315473658]: Tnf reporter robust z-score = 3.48; fewer than 50 cells in well = enough cells in well; call = active
U55872 (retired record) [SID315471786]: Tnf reporter robust z-score = -1.88; fewer than 50 cells in well = enough cells in well; call = active

The results go on.
Knock-down of Clk2 [SID315465999] resulted in: fewer than 50 cells in well fewer than 50 cells per well; well left out of calls; inactive. Silencing of Drc11 [SID315475059] resulted in: fewer than 50 cells in well fewer than 50 cells per well; well left out of calls; inactive. Or5aq1b [SID315480483] gave Tnf reporter robust z-score 1.87; fewer than 50 cells in well enough cells in well; inactive. After knock-down of St6galnac5 [SID315470492] the results were Tnf reporter robust z-score 0.5; fewer than 50 cells in well enough cells in well; inactive. Silencing of Gpr162 [SID315467016] came out at: Tnf reporter robust z-score -0.39; fewer than 50 cells in well enough cells in well; inactive. For Or5p59 [SID315480380] the deposit lists Tnf reporter robust z-score -0.18; fewer than 50 cells in well enough cells in well; inactive.

Hsph1 [SID315467323] showed Tnf reporter robust z-score -0.37; fewer than 50 cells in well enough cells in well; inactive. With knock-down of Cyb5r1 [SID315474421], the screen gave Tnf reporter robust z-score -1.06; fewer than 50 cells in well enough cells in well; inactive. Dcaf4 [SID315474787] gave Tnf reporter robust z-score -0.11; fewer than 50 cells in well enough cells in well; inactive.
